# PubChem BioAssay AID1224830 – NIAID | 2016
# Assay: 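Genes whose knock-down alters the TNF-alpha reporter response to LPS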 (primary screen)
# System: human THP-1 monocytic leukaemia cells, TNF dual-luciferase reporter clone, PMA-differentiated to macrophage-like cells
# Reagent: siRNA pool against human genes, 50 nM
# Duration: LPS for 4 h, given about 3 days after siRNA transfection
# Conditions: bacterial LPS (TLR4 ligand), 10 ng/ml
# Read-out: 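Ratio of firefly to renilla light, scaled to the plate median and expressed as a robust z-score per replicate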
# Scale: TNF reporter robust z-score: higher = stronger TNF reporter response to LPS
# Rule for the call: 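a well is active when its z-score exceeds 2.8 or falls below -1.5; control wells carry no call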
# The deposit covers about 18,000 reagents; this is an unselected part. Of all reagents, about 2,900 (16%) were called active. 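Calls are made per well; low scores hint the gene aids the LPS response, high scores that it dampens it.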 Entries without a mark were called inactive. Repeated entries: four replicate wells of each siRNA pool. No sequences are given here.
gene knocked down,TNF reporter robust z-score
ACOX2,1.88
ACOX2,1.92
ACOX2,2.25
ACOX2,2.35
CEP89,-1.06
CEP89,-0.64
CEP89,-1.35
CEP89,-1.82 (active)
ACRBP,-0.95
ACRBP,-0.24
ACRBP,-0.72
ACRBP,1.04
PQBP1,0.04
PQBP1,-0.13
PQBP1,-0.35
PQBP1,0.98
PSMC6,-1.27
PSMC6,-0.87
PSMC6,-1.06
PSMC6,-1.25
LRTM1,-0.84
LRTM1,-0.47
LRTM1,-0.82
LRTM1,-0.69
ARFRP1,-0.1
ARFRP1,-0.15
ARFRP1,0.08
ARFRP1,-0.22
AGER,-0.91
AGER,-0.71
AGER,-0.92
AGER,-0.44
IPO13,4.91 (active)
IPO13,3.52 (active)
IPO13,2.48
IPO13,2.63
CFAP54,-0.07
CFAP54,-0.48
CFAP54,0.25
CFAP54,0.81
CHCHD2,-1.02
CHCHD2,-0.14
CHCHD2,-0.52
CHCHD2,-0.07
AGRP,-0.37
AGRP,-0.89
AGRP,-0.38
AGRP,0.48
WDR72,-0.02
WDR72,-0.22
WDR72,0.24
WDR72,0.36
MAGEB18,-0.83
MAGEB18,-0.44
MAGEB18,-0.07
MAGEB18,-1.22
ARL14EP,2.41
ARL14EP,2.76
ARL14EP,1.84
ARL14EP,4.65 (active)
SOX21,-0.34
SOX21,-0.51
SOX21,-0.57
SOX21,-0.28
BBS9,2.34
BBS9,1.7
BBS9,2.66
BBS9,-0.56
VWF,-0.63
VWF,0.2
VWF,-0.8
VWF,0.45
SBF2,-1.41
SBF2,-1.35
SBF2,-0.78
SBF2,-0.92
VENTX,0.44
VENTX,0.16
VENTX,-0.32
VENTX,-0.22
ADAMTS1,-0.51
ADAMTS1,0.74
ADAMTS1,0.9
ADAMTS1,-0.52
TM2D3,-0.17
TM2D3,-0.26
TM2D3,0.25
TM2D3,-0.37
ID3,1.52
ID3,2.8 (active)
ID3,2.6
ID3,2.36
PPM1G,2.59
PPM1G,1.02
PPM1G,2.01
PPM1G,1.61
NKAIN4,1.34
NKAIN4,2.56
NKAIN4,0.89
NKAIN4,2.82 (active)
PRRC2A,-0.49
PRRC2A,-0.06
PRRC2A,0.69
PRRC2A,1.17
TMEM105,-0.62
TMEM105,-1.08
TMEM105,-0.79
TMEM105,-0.78
PFDN1,-1.08
PFDN1,0.22
PFDN1,-0.4
PFDN1,0.52
ARFGAP3,-0.41
ARFGAP3,0
ARFGAP3,-1.18
ARFGAP3,5.07 (active)
RSL1D1,-0.06
RSL1D1,0.75
RSL1D1,-0.22
RSL1D1,-0.17
NSUN2,-0.53
NSUN2,0.22
NSUN2,0.21
NSUN2,-1.15
XPR1,1.88
XPR1,1.75
XPR1,0.99
XPR1,1.38
GPR137B,-1.18
GPR137B,-0.72
GPR137B,-0.9
GPR137B,-0.89
HOGA1,0.39
HOGA1,0.85
HOGA1,-0.14
HOGA1,1.69
TCEAL7,0.6
TCEAL7,0.52
TCEAL7,-0.23
TCEAL7,-1.3

23 entries already listed, arranged by “TNF reporter robust z-score”, descending:
gene knocked down,TNF reporter robust z-score
ARL14EP,4.65 (active)
ARL14EP,2.76
BBS9,2.66
ARL14EP,2.41
BBS9,2.34
ARL14EP,1.84
BBS9,1.7
VWF,0.45
VENTX,0.44
VWF,0.2
VENTX,0.16
SOX21,-0.28
SOX21,-0.34
SOX21,-0.51
BBS9,-0.56
SOX21,-0.57
VWF,-0.63
SBF2,-0.78
VWF,-0.8
SBF2,-0.92
MAGEB18,-1.22
SBF2,-1.35
SBF2,-1.41
